The assay deals with heteronuclear ribonuclear protein K (hnRNP K) (human (endogenous in fibroblasts)) (UniProt P61978). The assay can be described thus: co-IP; hnRNP K immunoprecipitated with anti-hnRNP K antibody from lysates of normal and SCA10 (~2000 repeats) fibroblasts; lysis and wash buffer 20 mM HEPES pH 7.4, 1 mM EDTA, 100 mM NaCl, 1% NP-40; blotted for hnRNP K, then PKCδ.

Chains of the proteins cited; added tags and fusions are not shown. Lines headed by an entry give the natural chain unless they say otherwise; changes in a name come on top.
UniProt Q05655: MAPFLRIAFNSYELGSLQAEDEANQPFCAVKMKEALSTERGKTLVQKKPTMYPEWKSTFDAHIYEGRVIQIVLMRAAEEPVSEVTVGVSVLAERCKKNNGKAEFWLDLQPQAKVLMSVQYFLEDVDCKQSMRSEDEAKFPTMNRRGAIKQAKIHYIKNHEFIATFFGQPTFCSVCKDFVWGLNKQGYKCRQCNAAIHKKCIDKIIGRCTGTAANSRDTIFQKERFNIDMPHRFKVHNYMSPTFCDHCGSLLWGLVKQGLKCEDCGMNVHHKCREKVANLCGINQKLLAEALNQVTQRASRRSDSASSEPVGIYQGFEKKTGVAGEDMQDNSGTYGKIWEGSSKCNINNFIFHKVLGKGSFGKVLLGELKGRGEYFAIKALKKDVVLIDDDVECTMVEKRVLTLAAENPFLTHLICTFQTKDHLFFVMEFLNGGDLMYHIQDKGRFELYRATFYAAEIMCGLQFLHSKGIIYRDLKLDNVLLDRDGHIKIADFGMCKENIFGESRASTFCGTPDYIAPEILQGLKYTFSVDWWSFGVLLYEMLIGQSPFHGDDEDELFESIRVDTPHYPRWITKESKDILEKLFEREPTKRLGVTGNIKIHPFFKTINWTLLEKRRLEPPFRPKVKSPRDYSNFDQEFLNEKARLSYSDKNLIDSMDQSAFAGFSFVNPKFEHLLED

Results are given in words; binding and its absence hold for the method and conditions named. Binding seen in cells or lysates may run through a third protein. Some entries that bind do so weakly or less than the wild type.

In the case of “Protein Kinase C δ (PKCδ) (from UniProt Q05655 1-676) (enzyme)”, the binding entry is “binds”.

Values taken from paper PMC2883596.
